Source: publication PMC9028331
No constants are given. Whether binding was seen depends on the method and setting. Some results given as binding are weak or reduced against the parent protein; the word gives no strength.

Sequences of proteins named here, by UniProt entry; tags and fusion partners are left off.
UniProt P19073: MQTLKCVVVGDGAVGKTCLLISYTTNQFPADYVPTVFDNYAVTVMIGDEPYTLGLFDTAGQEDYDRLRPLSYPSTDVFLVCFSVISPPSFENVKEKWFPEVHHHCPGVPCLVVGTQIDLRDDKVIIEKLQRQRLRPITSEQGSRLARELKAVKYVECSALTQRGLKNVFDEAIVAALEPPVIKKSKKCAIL

Molecular target: Cdc42p (S. cerevisiae) (UniProt P19073)
Assay: two-hybrid; yeast two-hybrid, activation of the reporter gene; which partner was bait is not stated

B1: full-length Cla4p-S186E (protein, UniProt P48562 1-842)
chain: MSLSAAANKISDNDFQNIGPAPRPPSSNSQGRTCYNQTQPITKLMSQLDLTSASHLGTSTSKKKSGWVSYKDDGILSFIWQKRYLMLHDSYVALYKNDKQNDDAILKIPLTSIISVSRTQLKQYCFELVRCSDRNSVSSGSSSSLNVSSDSNSKKSIYIATKTESDLHSWLDAIFAKCPLLSGVSEPTNFTHKVHVGFDPETGSFVGMPTNWEKLLKHSRITGEDWNNNSAAVIQVLQFYQEYNGAGNPTNTLDKPQSGETSSSQKSLPNSYNDNKLRNNSVNSKSSSGVSSSMVSQRKTSQPPNTKSPVSLGSGSLPPINTKLPTSQSNIPRHLQNVPNQQYPKMRNGHSPTNGQFPRGPMHPNNSQRSLQQQQQQQQQQKQQHQQYPYHHQGPSPSPSPSPSPLNPYRPHHNMINPYSKQPQSPLSSQSTQNQAIPRYAQNSSPTAAHFQPQRTAPKPPISAPRAPYPSNQNATSNTHVQPVAPKNDQSTPQTMRQAPKRPDADVAQPGGVAKPKKPARPTMSTAEIMSKLKKVTVNADPSQCFKVIEKAGQGASGSVYLAERTHIPTESNMIELINNDIDEPHVGDKVAIKQMVLSKQPRKELIVNEILVMKDSRHKNIVNFLEAYLRTDDDLWVVMEFMEGGSLTDIIENSPTNDNSHSPLTEPQIAYIVRETCQGLKFLHDKHIIHRDIKSDNVLLDTRARVKITDFGFCARLTDKRSKRATMVGTPYWMAPEVVKQREYDEKIDVWSLGIMTIEMLEGEPPYLNEDPLKALYLIATNGTPKLKHPESLSLEIKRFLSVCLCVDVRYRASTEELLHHGFFNMACDPKDLTSLLEWKE
B1 was tested, and the binding was “binds”.

B2: full-length Cla4p (protein, UniProt P48562 1-842)
chain: MSLSAAANKISDNDFQNIGPAPRPPSSNSQGRTCYNQTQPITKLMSQLDLTSASHLGTSTSKKKSGWVSYKDDGILSFIWQKRYLMLHDSYVALYKNDKQNDDAILKIPLTSIISVSRTQLKQYCFELVRCSDRNSVSSGSSSSLNVSSDSNSKKSIYIATKTESDLHSWLDAIFAKCPLLSGVSSPTNFTHKVHVGFDPETGSFVGMPTNWEKLLKHSRITGEDWNNNSAAVIQVLQFYQEYNGAGNPTNTLDKPQSGETSSSQKSLPNSYNDNKLRNNSVNSKSSSGVSSSMVSQRKTSQPPNTKSPVSLGSGSLPPINTKLPTSQSNIPRHLQNVPNQQYPKMRNGHSPTNGQFPRGPMHPNNSQRSLQQQQQQQQQQKQQHQQYPYHHQGPSPSPSPSPSPLNPYRPHHNMINPYSKQPQSPLSSQSTQNQAIPRYAQNSSPTAAHFQPQRTAPKPPISAPRAPYPSNQNATSNTHVQPVAPKNDQSTPQTMRQAPKRPDADVAQPGGVAKPKKPARPTMSTAEIMSKLKKVTVNADPSQCFKVIEKAGQGASGSVYLAERTHIPTESNMIELINNDIDEPHVGDKVAIKQMVLSKQPRKELIVNEILVMKDSRHKNIVNFLEAYLRTDDDLWVVMEFMEGGSLTDIIENSPTNDNSHSPLTEPQIAYIVRETCQGLKFLHDKHIIHRDIKSDNVLLDTRARVKITDFGFCARLTDKRSKRATMVGTPYWMAPEVVKQREYDEKIDVWSLGIMTIEMLEGEPPYLNEDPLKALYLIATNGTPKLKHPESLSLEIKRFLSVCLCVDVRYRASTEELLHHGFFNMACDPKDLTSLLEWKE
For B2, the binding was “binds”.
